One experiment can be described thus: PubChem AID 1586. The settings on record: yeast two-hybrid polyglutamine protein interaction, reporter readout; measured here: averaged growth delta OD.
The nature of experiment [1]: enhancers of SMN2 over SMN1 splicing, cell-based, SMN2/SMN1 luciferase reporters (AID 1598). The settings on record: SMN2 vs SMN1 luciferase splicing reporter cells, at 10 µM; SMN1 luciferase ratio: measured here: SMN1 luciferase reporter average; SMN2 luciferase ratio: measured here: SMN2 luciferase reporter average, stronger effect = higher value.
A short description of experiment [2]: protection against mutant huntingtin cytotoxicity, PC12 cells, LDH release (AID 1610). Conditions: PC12 mutant huntingtin toxicity, final LDH at 4 uM, stronger effect = lower value. (LDH leaks from cells whose membrane has failed.)

This is one part of the list. The main result of the screen is listed elsewhere. These columns were measured beside it and carry no call. For some assays here: The list favours compounds with an active or inconclusive main result.

Regarding `C=C[C@H]1CN2CC[C@H]1C[C@H]2[C@H](O)c1ccnc2ccccc12`, the signal change (36 h minus 0 h) in the experiment “PubChem AID 1586” came out at 0.165. Further, in experiment [1], the SMN1 luciferase ratio was 0.96 and the SMN2 luciferase ratio is 0.96. The same compound gave a normalised LDH release in experiment [2] of 0.965.

In the case of `O=C1C=CC(=O)c2c(O)cccc21`, the signal change (36 h minus 0 h) in the experiment “PubChem AID 1586” came out at 0.393. Further, in experiment [1], the SMN1 luciferase ratio was 0.92 and the SMN2 luciferase ratio was 0.89. Besides, the normalised LDH release in experiment [2] was determined as 1.05.

Take `CCC(C)C(=O)O[C@H]1[C@H](O)C2C(CN3CC(C)CCC3[C@@]2(C)O)C2C[C@]34O[C@]5(O)C(OC(=O)C(C)(O)C(C)O)CC[C@@]3(C)C5C(OC(C)=O)[C@@H](OC(C)=O)C4[C@@]21O` (stereo partly specified): the signal change (36 h minus 0 h) in “PubChem AID 1586” was found to be 0.135. Besides, in experiment [1], the SMN1 luciferase ratio is 0.96 and the SMN2 luciferase ratio came to 0.85. In addition, the normalised LDH release in experiment [2] turned out to be 1.15.

The compound `O=C1CC[C@@]2(O)[C@H]3Cc4ccc(O)c5c4C2(CCN3CC2CC2)[C@H]1O5` came in with a signal change (36 h minus 0 h) in “PubChem AID 1586” of 0.116. Besides, in experiment [1], the SMN1 luciferase ratio is 0.87 and the SMN2 luciferase ratio amounted to 1.01. This compound had a normalised LDH release in experiment [2] of 0.609.

The compound `CC(=O)C1=C(O)C2C3c4c[nH]c5cccc(c45)CC3C(C)(C)N2C1=O` (stereo unspecified) displayed a signal change (36 h minus 0 h) in “PubChem AID 1586” of 0.0324. In experiment [1], the SMN1 luciferase ratio worked out at 1.07 and the SMN2 luciferase ratio was 0.98. This compound gave a normalised LDH release in experiment [2] of 0.884.

`C=CCN1CC[C@]23c4c5ccc(O)c4OC2C(=O)CC[C@@]3(O)[C@H]1C5` (stereo partly specified) returned a signal change (36 h minus 0 h) in “PubChem AID 1586” of 0.114. For the same compound, in experiment [1], the SMN1 luciferase ratio amounted to 0.9 and the SMN2 luciferase ratio turned out to be 0.91. For the same compound, the normalised LDH release in experiment [2] was 1.03.

As for `O=C1CN=C(c2ccccc2Cl)c2cc([N+](=O)[O-])ccc2N1`, the signal change (36 h minus 0 h) in “PubChem AID 1586” was found to be 0.438. In experiment [1], the SMN1 luciferase ratio was 0.85 and the SMN2 luciferase ratio came out at 0.9. Moreover, the normalised LDH release in experiment [2] is 0.867.

For `CC[C@H]1CN2CCC1C[C@@H]2[C@@H](O)c1ccnc2ccc(OC)cc12` (stereo partly specified), the signal change (36 h minus 0 h) in “PubChem AID 1586” was 0.0711. In addition, in experiment [1], the SMN1 luciferase ratio turned out to be 0.88 and the SMN2 luciferase ratio amounted to 0.9. Also, the normalised LDH release in experiment [2] was 0.987.

`CN1C(=O)CN=C(c2ccccc2F)c2cc([N+](=O)[O-])ccc21` had a signal change (36 h minus 0 h) in the experiment “PubChem AID 1586” of 0.636. Besides, in experiment [1], the SMN1 luciferase ratio was determined as 0.76 and the SMN2 luciferase ratio is 0.88. In addition, the normalised LDH release in experiment [2] came to 0.932.

Take `CC(C)(O)[C@@H]1[C@H]2OC(=O)[C@@H]1[C@]1(O)C[C@H]3O[C@]34C(=O)O[C@H]2[C@]14C`: the signal change (36 h minus 0 h) in the experiment “PubChem AID 1586” came out at 0.0839. Further, in experiment [1], the SMN1 luciferase ratio amounted to 0.86 and the SMN2 luciferase ratio was found to be 0.92. The compound also gave a normalised LDH release in experiment [2] of 1.15.

In the experiment “PubChem AID 1586”, `CN(C)[C@@H]1C(=O)C(C(N)=O)=C(O)[C@@]2(O)C(=O)C3=C(O)c4c(O)cccc4[C@@](C)(O)[C@H]3C[C@@H]12` had a signal change (36 h minus 0 h) of 0.271. In experiment [1], the SMN1 luciferase ratio was 0.94 and the SMN2 luciferase ratio is 0.82. In experiment [2], this compound yielded a normalised LDH release of 1.06.

In the case of `COc1cc(CCN)cc(OC)c1OC`, in the experiment “PubChem AID 1586”, the signal change (36 h minus 0 h) stood at 0.337. Further, in experiment [1], the SMN1 luciferase ratio came out at 0.87 and the SMN2 luciferase ratio is 0.91. The same compound returned a normalised LDH release in experiment [2] of 1.1.

In the experiment “PubChem AID 1586”, `CNC(C)C(=O)c1ccccc1` (stereo unspecified) came in with a signal change (36 h minus 0 h) of 0.136. For the same compound, in experiment [1], the SMN1 luciferase ratio is 0.95 and the SMN2 luciferase ratio came out at 1.01. Moreover, the normalised LDH release in experiment [2] was 1.07.

`CCCC(C)(COC(N)=O)COC(=O)NC(C)C` (stereo unspecified) came in with a signal change (36 h minus 0 h) in “PubChem AID 1586” of 0.11. In experiment [1], the SMN1 luciferase ratio was 0.79 and the SMN2 luciferase ratio turned out to be 0.98. Also, the normalised LDH release in experiment [2] worked out at 0.983.

`FC(F)(F)c1cccc(N2CCNCC2)c1` showed a signal change (36 h minus 0 h) in the experiment “PubChem AID 1586” of 0.411. For the same compound, in experiment [1], the SMN1 luciferase ratio worked out at 0.86 and the SMN2 luciferase ratio was 0.98. The normalised LDH release in experiment [2] turned out to be 1.02.

Consider `O=C(CCCN1CCC2(CC1)C(=O)NCN2c1ccccc1)c1ccc(F)cc1`, for which the signal change (36 h minus 0 h) in “PubChem AID 1586” is 0.389. Besides, in experiment [1], the SMN1 luciferase ratio was 1.01 and the SMN2 luciferase ratio amounted to 0.86. This compound also came in with a normalised LDH release in experiment [2] of 1.29.

`Cc1cc(O)ccc1Cl` had a signal change (36 h minus 0 h) in the experiment “PubChem AID 1586” of 0.222. Further, in experiment [1], the SMN1 luciferase ratio was 0.79 and the SMN2 luciferase ratio was 0.89. The same compound returned a normalised LDH release in experiment [2] of 0.847.

In the experiment “PubChem AID 1586”, `C#CC1(O)CCC2C3CCC4=CC(=O)CCC4(C)C3CCC21C` (stereo unspecified) returned a signal change (36 h minus 0 h) of 0.064. Besides, in experiment [1], the SMN1 luciferase ratio was found to be 0.95 and the SMN2 luciferase ratio worked out at 0.96. This compound yielded a normalised LDH release in experiment [2] of 0.979.

Compound `C[C@@H]1O[C@@H](O[C@H]2C[C@@H](O)[C@]3(CO)C4C(CC[C@]3(O)C2)[C@@]2(O)CC[C@H](C3=CC(=O)OC3)[C@@]2(C)C[C@H]4O)[C@H](O)[C@H](O)[C@H]1O` (stereo partly specified) yielded a signal change (36 h minus 0 h) in the experiment “PubChem AID 1586” of 0.319. For the same compound, in experiment [1], the SMN1 luciferase ratio amounted to 0.05 and the SMN2 luciferase ratio turned out to be 0.09. This compound gave a normalised LDH release in experiment [2] of 1.03.

Consider `C=C1C2CC[C@H]3[C@]4(C)C[C@H](OC5OC(CO)C(OS(=O)(=O)O)C(OS(=O)(=O)O)C5OC(=O)CC(C)C)C[C@@H](C(=O)O)[C@H]4CC[C@]3(C2)[C@H]1O` (stereo partly specified), for which the signal change (36 h minus 0 h) in the experiment “PubChem AID 1586” came out at 0.065. Also, in experiment [1], the SMN1 luciferase ratio came to 0.85 and the SMN2 luciferase ratio worked out at 0.8. The normalised LDH release in experiment [2] is 0.815.

`NC1C[C@H]1c1ccccc1` (stereo partly specified) yielded a signal change (36 h minus 0 h) in the experiment “PubChem AID 1586” of 0.111. Besides, in experiment [1], the SMN1 luciferase ratio was determined as 0.91 and the SMN2 luciferase ratio was 0.97. In experiment [2], the normalised LDH release was found to be 0.931.

`CN1C(=O)CN=C(c2ccccc2)c2cc(Cl)ccc21` yielded a signal change (36 h minus 0 h) in “PubChem AID 1586” of 0.241. For the same compound, in experiment [1], the SMN1 luciferase ratio is 0.76 and the SMN2 luciferase ratio was 0.96. Besides, the normalised LDH release in experiment [2] turned out to be 0.967.

Consider `NC(=O)CN1CCCC1=O`, for which the signal change (36 h minus 0 h) in “PubChem AID 1586” amounted to 0.173. In addition, in experiment [1], the SMN1 luciferase ratio came out at 0.95 and the SMN2 luciferase ratio came out at 0.86. Further, the normalised LDH release in experiment [2] was 1.81.

For the compound `CC1=NCCc2c1[nH]c1cc(O)ccc21`, the signal change (36 h minus 0 h) in “PubChem AID 1586” turned out to be 0.295. Further, in experiment [1], the SMN1 luciferase ratio was determined as 0.9 and the SMN2 luciferase ratio was found to be 0.93. Moreover, in experiment [2], the normalised LDH release was determined as 0.824.

`CC[C@@H]1C(=O)OC[C@@H]1Cc1cncn1C`: the signal change (36 h minus 0 h) in the experiment “PubChem AID 1586” worked out at 0.0284. In experiment [1], the SMN1 luciferase ratio was found to be 0.88 and the SMN2 luciferase ratio was 0.77. For the same compound, in experiment [2], the normalised LDH release is 0.988.

On to `c1ccc2c(c1)sc1ccccc12`, for which the signal change (36 h minus 0 h) in the experiment “PubChem AID 1586” was found to be 0.184. Besides, in experiment [1], the SMN1 luciferase ratio worked out at 0.89 and the SMN2 luciferase ratio amounted to 0.86. Further, the normalised LDH release in experiment [2] was 0.912.

`CNC(C)Cc1ccccc1` (stereo unspecified) gave a signal change (36 h minus 0 h) in “PubChem AID 1586” of 0.278. Besides, in experiment [1], the SMN1 luciferase ratio came out at 0.87 and the SMN2 luciferase ratio was 0.89. The normalised LDH release in experiment [2] turned out to be 0.986.

As for `CCC(C)[C@H]1O[C@]2(C=C[C@@H]1C)C[C@@H]1C[C@@H](C/C=C(\C)[C@@H](OC3C[C@H](OC)C(O[C@H]4C[C@H](OC)[C@@H](O)[C@H](C)O4)[C@H](C)O3)[C@@H](C)/C=C/C=C3\CO[C@@H]4[C@H](O)C(C)=C[C@@H](C(=O)O1)[C@]34O)O2` (stereo partly specified), in the experiment “PubChem AID 1586”, the signal change (36 h minus 0 h) came out at 0.0025. Also, in experiment [1], the SMN1 luciferase ratio amounted to 0.88 and the SMN2 luciferase ratio is 0.87. Further, in experiment [2], the normalised LDH release was determined as 1.03.

On to `N#CC(O[C@@H]1O[C@H](CO[C@@H]2O[C@H](CO)[C@@H](O)[C@H](O)[C@H]2O)[C@@H](O)[C@H](O)[C@H]1O)c1ccccc1` (stereo partly specified), for which the signal change (36 h minus 0 h) in the experiment “PubChem AID 1586” worked out at 0.051. Further, in experiment [1], the SMN1 luciferase ratio is 0.9 and the SMN2 luciferase ratio was determined as 0.97. This compound also returned a normalised LDH release in experiment [2] of 0.896.

Values taken from PubChem BioAssay.
